# Laboratory results as given in the supplement of paper PMC10849652.
# Sequences of proteins named here, by UniProt entry; tags and fusion partners are left off. A change or cut given only in a name is not applied to a line headed by its entry.
# UniProt Q86XT9, whole entry, looked up: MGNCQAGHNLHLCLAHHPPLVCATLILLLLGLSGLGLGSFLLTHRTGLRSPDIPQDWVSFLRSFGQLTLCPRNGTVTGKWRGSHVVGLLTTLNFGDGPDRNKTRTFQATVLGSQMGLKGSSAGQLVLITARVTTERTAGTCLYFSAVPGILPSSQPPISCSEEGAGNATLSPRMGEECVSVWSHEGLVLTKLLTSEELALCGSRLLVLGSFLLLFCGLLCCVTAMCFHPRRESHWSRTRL
# UniProt Q9NQ34: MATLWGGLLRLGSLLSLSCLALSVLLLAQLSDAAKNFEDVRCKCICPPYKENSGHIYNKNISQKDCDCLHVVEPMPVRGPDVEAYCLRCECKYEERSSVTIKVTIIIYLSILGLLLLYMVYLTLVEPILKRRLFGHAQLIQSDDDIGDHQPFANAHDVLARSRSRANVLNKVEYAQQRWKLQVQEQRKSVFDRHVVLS
# UniProt Q96JJ7: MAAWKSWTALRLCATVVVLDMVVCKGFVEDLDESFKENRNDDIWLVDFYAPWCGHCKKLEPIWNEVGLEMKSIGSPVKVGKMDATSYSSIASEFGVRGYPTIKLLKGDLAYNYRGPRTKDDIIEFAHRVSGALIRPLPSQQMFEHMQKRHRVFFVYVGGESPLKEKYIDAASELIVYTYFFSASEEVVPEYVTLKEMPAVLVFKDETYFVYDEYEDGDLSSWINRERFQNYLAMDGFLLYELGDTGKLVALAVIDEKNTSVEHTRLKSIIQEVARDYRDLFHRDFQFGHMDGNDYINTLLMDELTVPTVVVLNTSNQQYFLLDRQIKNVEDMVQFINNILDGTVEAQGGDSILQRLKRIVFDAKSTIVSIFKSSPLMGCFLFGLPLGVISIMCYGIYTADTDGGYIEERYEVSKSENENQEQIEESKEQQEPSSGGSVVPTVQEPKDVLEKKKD
# UniProt P12270, whole entry, looked up: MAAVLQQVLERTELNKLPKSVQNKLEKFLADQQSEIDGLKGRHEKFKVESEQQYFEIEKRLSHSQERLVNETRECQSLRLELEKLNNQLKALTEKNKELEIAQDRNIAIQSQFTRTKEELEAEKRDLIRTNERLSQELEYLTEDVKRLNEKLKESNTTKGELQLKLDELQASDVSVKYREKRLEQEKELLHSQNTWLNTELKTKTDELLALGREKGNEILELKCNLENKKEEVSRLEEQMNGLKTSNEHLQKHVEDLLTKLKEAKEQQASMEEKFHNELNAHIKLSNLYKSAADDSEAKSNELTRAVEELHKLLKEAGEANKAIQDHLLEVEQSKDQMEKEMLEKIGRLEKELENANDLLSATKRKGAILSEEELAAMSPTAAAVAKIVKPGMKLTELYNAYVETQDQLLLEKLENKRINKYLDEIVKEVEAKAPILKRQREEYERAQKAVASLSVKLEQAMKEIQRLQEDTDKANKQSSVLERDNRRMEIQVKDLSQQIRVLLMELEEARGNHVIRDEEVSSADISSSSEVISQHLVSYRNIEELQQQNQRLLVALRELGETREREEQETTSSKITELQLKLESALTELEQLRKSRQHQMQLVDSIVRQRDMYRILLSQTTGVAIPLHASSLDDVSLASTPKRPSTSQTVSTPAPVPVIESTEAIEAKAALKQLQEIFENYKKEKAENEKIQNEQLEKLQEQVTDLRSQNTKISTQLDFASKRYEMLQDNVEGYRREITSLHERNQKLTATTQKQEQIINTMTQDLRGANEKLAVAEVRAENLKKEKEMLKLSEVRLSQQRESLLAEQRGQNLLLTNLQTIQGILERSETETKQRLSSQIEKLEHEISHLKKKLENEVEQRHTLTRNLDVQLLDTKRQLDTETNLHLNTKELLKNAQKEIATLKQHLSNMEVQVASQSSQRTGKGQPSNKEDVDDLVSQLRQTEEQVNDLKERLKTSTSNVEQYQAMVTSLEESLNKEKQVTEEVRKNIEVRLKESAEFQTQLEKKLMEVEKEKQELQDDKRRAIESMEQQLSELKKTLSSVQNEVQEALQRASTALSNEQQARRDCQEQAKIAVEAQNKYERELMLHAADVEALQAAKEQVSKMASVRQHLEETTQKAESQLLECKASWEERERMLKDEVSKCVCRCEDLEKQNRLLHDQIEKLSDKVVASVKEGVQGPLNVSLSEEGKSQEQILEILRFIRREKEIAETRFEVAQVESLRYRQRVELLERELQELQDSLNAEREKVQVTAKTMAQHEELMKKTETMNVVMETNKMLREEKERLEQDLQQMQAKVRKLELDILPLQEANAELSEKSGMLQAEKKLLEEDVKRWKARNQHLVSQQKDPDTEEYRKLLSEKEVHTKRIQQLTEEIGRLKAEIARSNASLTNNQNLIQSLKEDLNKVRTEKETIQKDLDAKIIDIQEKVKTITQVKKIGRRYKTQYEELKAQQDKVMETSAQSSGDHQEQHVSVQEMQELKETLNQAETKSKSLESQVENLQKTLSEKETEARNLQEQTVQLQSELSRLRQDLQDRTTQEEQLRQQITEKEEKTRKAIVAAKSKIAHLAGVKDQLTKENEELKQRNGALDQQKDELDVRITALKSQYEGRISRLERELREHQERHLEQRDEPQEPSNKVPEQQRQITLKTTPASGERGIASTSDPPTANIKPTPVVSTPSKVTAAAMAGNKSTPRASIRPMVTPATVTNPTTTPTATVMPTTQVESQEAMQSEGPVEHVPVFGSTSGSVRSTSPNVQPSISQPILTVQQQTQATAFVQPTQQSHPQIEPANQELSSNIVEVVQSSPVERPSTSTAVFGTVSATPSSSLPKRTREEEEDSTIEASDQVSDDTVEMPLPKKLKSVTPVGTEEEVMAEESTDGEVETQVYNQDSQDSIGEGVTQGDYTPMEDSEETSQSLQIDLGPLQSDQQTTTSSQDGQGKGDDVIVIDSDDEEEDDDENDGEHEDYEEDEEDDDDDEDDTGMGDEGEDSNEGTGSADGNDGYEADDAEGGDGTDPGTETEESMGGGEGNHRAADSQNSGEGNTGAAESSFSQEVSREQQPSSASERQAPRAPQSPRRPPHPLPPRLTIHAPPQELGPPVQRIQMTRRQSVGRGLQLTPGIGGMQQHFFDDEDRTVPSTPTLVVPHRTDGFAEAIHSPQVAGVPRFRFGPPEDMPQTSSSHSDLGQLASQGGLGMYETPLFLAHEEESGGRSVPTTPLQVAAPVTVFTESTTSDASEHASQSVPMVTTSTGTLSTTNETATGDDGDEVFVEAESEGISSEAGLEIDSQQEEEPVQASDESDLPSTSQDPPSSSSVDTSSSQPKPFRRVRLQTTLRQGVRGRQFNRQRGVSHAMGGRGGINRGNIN
# UniProt Q8IY95: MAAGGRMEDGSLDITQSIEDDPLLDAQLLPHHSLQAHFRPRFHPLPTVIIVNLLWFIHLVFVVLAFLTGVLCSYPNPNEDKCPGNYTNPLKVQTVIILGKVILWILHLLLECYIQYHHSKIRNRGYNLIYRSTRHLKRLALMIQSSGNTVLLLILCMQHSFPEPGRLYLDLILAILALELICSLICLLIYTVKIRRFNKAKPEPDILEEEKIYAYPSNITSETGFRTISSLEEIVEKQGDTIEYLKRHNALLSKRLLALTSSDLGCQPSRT
# UniProt Q9ULW0, whole entry, looked up: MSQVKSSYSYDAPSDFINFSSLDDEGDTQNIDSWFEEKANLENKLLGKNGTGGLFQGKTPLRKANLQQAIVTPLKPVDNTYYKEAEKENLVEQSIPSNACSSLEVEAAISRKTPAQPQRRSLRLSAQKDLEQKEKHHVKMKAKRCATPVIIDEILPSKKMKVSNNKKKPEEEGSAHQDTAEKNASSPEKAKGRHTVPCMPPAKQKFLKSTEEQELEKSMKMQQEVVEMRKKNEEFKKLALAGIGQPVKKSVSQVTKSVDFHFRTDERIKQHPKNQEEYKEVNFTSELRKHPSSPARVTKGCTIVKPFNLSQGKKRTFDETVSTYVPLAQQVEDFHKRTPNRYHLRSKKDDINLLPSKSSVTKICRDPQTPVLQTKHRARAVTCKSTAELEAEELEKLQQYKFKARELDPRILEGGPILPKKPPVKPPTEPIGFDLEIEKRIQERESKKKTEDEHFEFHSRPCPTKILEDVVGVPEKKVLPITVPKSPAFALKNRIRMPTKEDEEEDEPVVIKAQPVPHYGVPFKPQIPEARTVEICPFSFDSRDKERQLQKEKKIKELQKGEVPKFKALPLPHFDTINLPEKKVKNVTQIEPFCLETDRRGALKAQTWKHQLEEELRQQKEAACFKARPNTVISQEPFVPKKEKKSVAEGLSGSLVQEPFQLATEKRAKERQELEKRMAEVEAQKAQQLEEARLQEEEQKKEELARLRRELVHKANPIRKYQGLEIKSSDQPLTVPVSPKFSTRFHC
# UniProt P20333, whole entry, looked up: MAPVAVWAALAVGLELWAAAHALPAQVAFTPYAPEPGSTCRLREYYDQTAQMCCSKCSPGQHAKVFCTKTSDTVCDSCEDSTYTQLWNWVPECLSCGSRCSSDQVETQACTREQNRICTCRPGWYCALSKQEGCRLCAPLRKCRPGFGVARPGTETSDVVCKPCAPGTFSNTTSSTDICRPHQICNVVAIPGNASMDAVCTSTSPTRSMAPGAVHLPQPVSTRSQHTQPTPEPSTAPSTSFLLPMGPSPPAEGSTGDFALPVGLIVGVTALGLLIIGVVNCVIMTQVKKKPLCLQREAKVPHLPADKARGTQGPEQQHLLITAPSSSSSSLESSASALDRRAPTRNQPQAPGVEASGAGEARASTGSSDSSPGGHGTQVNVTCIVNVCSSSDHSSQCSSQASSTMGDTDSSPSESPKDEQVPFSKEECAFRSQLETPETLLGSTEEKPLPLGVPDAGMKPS
# UniProt O14773: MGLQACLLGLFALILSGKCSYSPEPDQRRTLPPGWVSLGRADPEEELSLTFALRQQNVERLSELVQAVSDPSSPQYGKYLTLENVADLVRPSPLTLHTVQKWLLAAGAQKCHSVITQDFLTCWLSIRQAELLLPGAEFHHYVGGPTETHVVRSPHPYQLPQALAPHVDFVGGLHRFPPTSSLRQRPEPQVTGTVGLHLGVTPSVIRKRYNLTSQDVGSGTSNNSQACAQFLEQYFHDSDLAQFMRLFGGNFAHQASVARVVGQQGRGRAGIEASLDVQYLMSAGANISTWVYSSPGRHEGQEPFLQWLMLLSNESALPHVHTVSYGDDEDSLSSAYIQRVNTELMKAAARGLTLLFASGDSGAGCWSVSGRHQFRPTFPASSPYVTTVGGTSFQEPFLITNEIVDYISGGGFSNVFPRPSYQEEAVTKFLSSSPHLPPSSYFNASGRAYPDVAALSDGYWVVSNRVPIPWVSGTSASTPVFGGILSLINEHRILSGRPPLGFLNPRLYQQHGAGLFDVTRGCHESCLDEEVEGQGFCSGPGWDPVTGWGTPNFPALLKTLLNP
# UniProt Q53FA7: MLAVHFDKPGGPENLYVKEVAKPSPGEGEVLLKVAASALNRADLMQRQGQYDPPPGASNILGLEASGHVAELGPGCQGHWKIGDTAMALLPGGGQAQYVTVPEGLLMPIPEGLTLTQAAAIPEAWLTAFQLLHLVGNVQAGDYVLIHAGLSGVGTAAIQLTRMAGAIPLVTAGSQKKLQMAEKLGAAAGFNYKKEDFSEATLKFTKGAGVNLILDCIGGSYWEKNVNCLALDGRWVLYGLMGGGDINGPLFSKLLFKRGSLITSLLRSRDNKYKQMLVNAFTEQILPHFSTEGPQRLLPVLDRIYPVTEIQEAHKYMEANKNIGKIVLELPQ
# UniProt Q9BTV4: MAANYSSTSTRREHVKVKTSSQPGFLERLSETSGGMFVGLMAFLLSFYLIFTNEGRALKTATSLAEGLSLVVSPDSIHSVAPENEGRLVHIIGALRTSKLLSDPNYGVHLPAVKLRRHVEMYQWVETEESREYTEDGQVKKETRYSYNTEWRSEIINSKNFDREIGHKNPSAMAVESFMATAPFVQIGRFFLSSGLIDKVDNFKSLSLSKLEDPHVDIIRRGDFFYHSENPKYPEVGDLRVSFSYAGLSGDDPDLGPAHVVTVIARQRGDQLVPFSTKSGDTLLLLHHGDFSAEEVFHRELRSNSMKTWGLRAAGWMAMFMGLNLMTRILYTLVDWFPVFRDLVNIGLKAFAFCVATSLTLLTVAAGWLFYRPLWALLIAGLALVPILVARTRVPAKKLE
# UniProt O95379: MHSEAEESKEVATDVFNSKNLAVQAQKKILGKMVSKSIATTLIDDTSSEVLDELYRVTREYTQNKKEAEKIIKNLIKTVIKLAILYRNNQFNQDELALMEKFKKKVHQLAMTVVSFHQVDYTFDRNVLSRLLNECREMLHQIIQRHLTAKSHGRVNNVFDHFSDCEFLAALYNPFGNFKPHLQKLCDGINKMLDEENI
# UniProt Q9NYL9: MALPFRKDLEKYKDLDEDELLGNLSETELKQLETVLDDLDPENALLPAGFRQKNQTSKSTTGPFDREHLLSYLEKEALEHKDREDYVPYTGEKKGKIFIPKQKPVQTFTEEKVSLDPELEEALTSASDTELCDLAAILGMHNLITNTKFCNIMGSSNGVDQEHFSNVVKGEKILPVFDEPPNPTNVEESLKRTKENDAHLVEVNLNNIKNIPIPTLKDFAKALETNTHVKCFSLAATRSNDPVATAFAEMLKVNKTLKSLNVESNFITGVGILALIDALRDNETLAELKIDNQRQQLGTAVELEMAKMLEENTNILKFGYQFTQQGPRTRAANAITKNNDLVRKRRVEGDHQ
# This is one part of the list.
# Compound: CC(=O)c1cnc2ccc(-c3cc(Cl)c(O)c(Cl)c3)nc2c1N[C@H]1CC[C@H](CN(C)C)CC1
# Test: log2 fold change, soluble protein after heating vs DMSO (PISA); higher = thermal stabilisation; K562 lysate, 10 uM; active = over 0.2 and 3.5 SD of the protein, either way, in both replicates (recomputed)
# In short: (§1)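 Log-two fold change in thermal stability relative to solvent controls is reported from duplicates. For each sample, crude K562 extract from dounce-homogenised pellets in PBS pH 7.4 with 1 mM MgCl2, at 1 mg/mL protein, was treated with 10 μM compound for 30 min. Aliquots heated for 3 min across 48°C-58°C were pooled, brought to 0.5% NP-40 at 4°C and cleared at 21,000xg for 90 min. The supernatant was quantified by TMTpro 16plex LC-MS/MS with channel sums equalised.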
row,Target,log2 fold change
1,TMEM219 (UniProt Q86XT9),inactive: 0.041
2,TMEM9B (UniProt Q9NQ34),inactive: -0.018
3,TMX3 (UniProt Q96JJ7),inactive: 0.006
4,TPR (UniProt P12270),inactive: -0.006
5,TMEM192 (UniProt Q8IY95),inactive: 0.037
6,TPX2 (UniProt Q9ULW0),inactive: -0.01
7,TNFRSF1B (UniProt P20333),inactive: 0.152
8,TPP1 (UniProt O14773),inactive: 0.021
9,TP53I3 (UniProt Q53FA7),inactive: -0.017
10,TMEM43 (UniProt Q9BTV4),inactive: -0.018
11,TNFAIP8 isoform 4 (UniProt O95379),inactive: -0.01

# Compound: CC(C)(C)Cn1c(N)nc2ccc(-c3[nH]c(C(C)(C)C)nc3-c3ccc(F)cc3)nc21 [ralimetinib]
# Test: as above
# In short: as §1
row,Target,log2 fold change
1,TPI1 (UniProt P60174),inactive: 0.097
2,TMOD3 (UniProt Q9NYL9),inactive: -0.014
3,TOR1AIP1 isoform 3 (UniProt Q5JTV8),inactive: -0.021
4,TNPO1 (UniProt Q92973),inactive: -0.007
5,TPP2 (UniProt P29144),inactive: -0.002
6,TOR1AIP2 (UniProt Q8NFQ8),inactive: 0.002
7,TP53BP1 isoform 2 (UniProt Q12888),inactive: 0.017
8,TP53BP2 isoform 3 (UniProt Q13625),inactive: 0.037
9,TMEM245 (UniProt Q9H330),inactive: 0.035
10,TPM1 isoform 4 (UniProt P09493),inactive: 0.001
11,TPM4 (UniProt P67936),inactive: 0.003
12,TMTC3 (UniProt Q6ZXV5),inactive: -0.022
13,TOP2B isoform 2 (UniProt Q02880),inactive: 0.016
14,TOP1 (UniProt P11387),inactive: 0.04
15,TOX4 (UniProt O94842),inactive: 0.009
16,TNFRSF8 (UniProt P28908),inactive: 0.007
17,TMEM63A (UniProt O94886),inactive: 0.012

row,Target,log2 fold change
1,TPP2 (UniProt Q5VZU9),inactive: -0.018
2,TMEM199 (UniProt Q8N511),inactive: -0.001
3,TPD52L2 isoform 7 (UniProt O43399),inactive: -0.013
4,TOP2A isoform 4 (UniProt P11388),inactive: 0.047
5,TOP3A (UniProt Q13472),inactive: -0.133
6,TMEM219 (UniProt Q86XT9),inactive: -0.059
7,TMEM9B (UniProt Q9NQ34),inactive: -0.035
8,TMX3 (UniProt Q96JJ7),inactive: -0.03
9,TPR (UniProt P12270),inactive: -0.007
10,TMEM192 (UniProt Q8IY95),inactive: 0.004
11,TPX2 (UniProt Q9ULW0),inactive: 0.003
12,TNFRSF1B (UniProt P20333),inactive: 0.033
13,TPP1 (UniProt O14773),inactive: -0.043
14,TP53I3 (UniProt Q53FA7),inactive: 0.043
15,TMEM43 (UniProt Q9BTV4),inactive: 0.019
16,TNFAIP8 isoform 4 (UniProt O95379),inactive: -0.114

# Compound: CC(C)(O)CC(=O)NCCn1ccc2ncnc(Nc3ccc(Oc4cccc(C(F)(F)F)c4)c(Cl)c3)c21
# Test: as above
# In short: as §1
row,Target,log2 fold change
1,TPI1 (UniProt P60174),inactive: -0.035
2,TMOD3 (UniProt Q9NYL9),inactive: -0.045
3,TOR1AIP1 isoform 3 (UniProt Q5JTV8),inactive: -0.038
4,TNPO1 (UniProt Q92973),inactive: 0.008
5,TPP2 (UniProt P29144),inactive: 0.014
6,TOR1AIP2 (UniProt Q8NFQ8),inactive: 0.005
7,TP53BP1 isoform 2 (UniProt Q12888),inactive: -0.013
8,TP53BP2 isoform 3 (UniProt Q13625),inactive: 0.079
9,TMEM245 (UniProt Q9H330),inactive: 0.005
10,TPM1 isoform 4 (UniProt P09493),inactive: -0.011
11,TPM4 (UniProt P67936),inactive: -0.023
12,TMTC3 (UniProt Q6ZXV5),inactive: 0.021
13,TOP2B isoform 2 (UniProt Q02880),inactive: -0.032
14,TOP1 (UniProt P11387),inactive: 0.019
15,TOX4 (UniProt O94842),inactive: -0.034
16,TNFRSF8 (UniProt P28908),inactive: -0.055
17,TMEM63A (UniProt O94886),inactive: -0.069

row,Target,log2 fold change
1,TPP2 (UniProt Q5VZU9),inactive: 0.046
2,TMEM199 (UniProt Q8N511),inactive: -0.078
3,TPD52L2 isoform 7 (UniProt O43399),inactive: 0.01
4,TOP2A isoform 4 (UniProt P11388),inactive: -0.002
5,TOP3A (UniProt Q13472),inactive: 0.039
6,TMEM219 (UniProt Q86XT9),inactive: 0.014
7,TMEM9B (UniProt Q9NQ34),inactive: -0.084
8,TMX3 (UniProt Q96JJ7),inactive: -0.003
9,TPR (UniProt P12270),inactive: -0.011
10,TMEM192 (UniProt Q8IY95),inactive: -0.02
11,TPX2 (UniProt Q9ULW0),inactive: -0.006
12,TNFRSF1B (UniProt P20333),inactive: -0.046
13,TPP1 (UniProt O14773),inactive: -0.016
14,TP53I3 (UniProt Q53FA7),inactive: 0.038
15,TMEM43 (UniProt Q9BTV4),inactive: -0.03
16,TNFAIP8 isoform 4 (UniProt O95379),inactive: 0.003
